Data reported in paper doi:10.1101/2022.01.21.475743.
Read-outs that look alike come from different tables or passages of the source. Results are given in words; binding and its absence hold for the method and conditions named. For some of these results: In cells and extracts the contact can be indirect. Some binding calls cover weakened binding; strength is not graded here. Values belong to the molecule of their own block, whether it stands above or below them.

Chains of the proteins cited; added tags and fusions are not shown.
UniProt P23443: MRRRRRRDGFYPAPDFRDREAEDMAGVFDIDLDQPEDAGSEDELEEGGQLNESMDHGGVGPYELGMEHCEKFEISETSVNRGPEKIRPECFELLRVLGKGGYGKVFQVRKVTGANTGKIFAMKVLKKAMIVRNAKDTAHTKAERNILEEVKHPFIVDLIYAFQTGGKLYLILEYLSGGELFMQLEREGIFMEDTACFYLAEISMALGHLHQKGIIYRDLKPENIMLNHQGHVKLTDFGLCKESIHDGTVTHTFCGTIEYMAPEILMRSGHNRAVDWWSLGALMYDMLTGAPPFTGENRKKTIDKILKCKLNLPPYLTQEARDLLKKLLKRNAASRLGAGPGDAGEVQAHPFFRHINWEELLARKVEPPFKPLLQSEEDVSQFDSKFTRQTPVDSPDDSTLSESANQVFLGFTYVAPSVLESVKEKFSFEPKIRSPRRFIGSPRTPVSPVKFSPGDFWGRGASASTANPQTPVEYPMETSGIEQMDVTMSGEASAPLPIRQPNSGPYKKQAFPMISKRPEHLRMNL
UniProt Q13541: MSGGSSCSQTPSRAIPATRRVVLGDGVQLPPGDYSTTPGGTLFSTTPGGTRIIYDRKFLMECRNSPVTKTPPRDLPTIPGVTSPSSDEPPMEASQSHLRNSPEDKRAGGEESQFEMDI
UniProt P42338: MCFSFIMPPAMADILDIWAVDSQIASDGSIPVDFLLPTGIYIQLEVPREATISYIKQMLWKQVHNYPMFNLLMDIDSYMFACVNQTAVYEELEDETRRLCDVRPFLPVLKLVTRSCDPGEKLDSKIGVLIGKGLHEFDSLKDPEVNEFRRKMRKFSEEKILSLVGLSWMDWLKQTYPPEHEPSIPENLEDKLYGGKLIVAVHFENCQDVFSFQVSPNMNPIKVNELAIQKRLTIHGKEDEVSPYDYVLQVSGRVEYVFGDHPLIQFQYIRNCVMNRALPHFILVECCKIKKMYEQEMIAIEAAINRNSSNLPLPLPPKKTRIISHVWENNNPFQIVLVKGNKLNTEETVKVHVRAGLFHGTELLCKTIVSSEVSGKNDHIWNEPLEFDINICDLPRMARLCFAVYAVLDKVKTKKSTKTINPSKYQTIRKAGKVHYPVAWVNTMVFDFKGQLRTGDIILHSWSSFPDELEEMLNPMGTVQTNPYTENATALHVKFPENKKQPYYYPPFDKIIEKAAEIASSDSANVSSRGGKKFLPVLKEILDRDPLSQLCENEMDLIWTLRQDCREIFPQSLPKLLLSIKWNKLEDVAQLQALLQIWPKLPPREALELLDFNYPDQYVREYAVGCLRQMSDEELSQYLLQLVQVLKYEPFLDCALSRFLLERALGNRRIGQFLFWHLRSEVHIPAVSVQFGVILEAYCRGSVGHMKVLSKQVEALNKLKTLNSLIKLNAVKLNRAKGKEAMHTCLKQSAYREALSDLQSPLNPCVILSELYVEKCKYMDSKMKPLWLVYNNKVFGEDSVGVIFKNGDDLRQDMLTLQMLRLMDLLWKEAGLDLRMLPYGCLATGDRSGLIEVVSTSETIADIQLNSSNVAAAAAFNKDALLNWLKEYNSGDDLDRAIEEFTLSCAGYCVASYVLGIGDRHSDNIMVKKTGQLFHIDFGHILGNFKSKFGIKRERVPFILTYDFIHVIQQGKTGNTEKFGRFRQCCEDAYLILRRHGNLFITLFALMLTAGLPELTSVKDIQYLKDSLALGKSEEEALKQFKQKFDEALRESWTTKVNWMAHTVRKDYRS

Assays:
[1] = biological target: Flag-tagged wild-type Claspin (UniProt Q9HAW4); test: co-IP
[2] = biological target: Claspin 1-350aa+897-1339aa polypeptide (#24), C-terminally Flag-tagged (UniProt Q9HAW4); test: co-IP
[3] = biological target: Claspin 1-350aa+897-1209aa polypeptide (#19), C-terminally Flag-tagged (UniProt Q9HAW4); test: co-IP
[4] = biological target: Claspin 897-1339aa polypeptide (#18), C-terminally Flag-tagged (UniProt Q9HAW4); test: co-IP
[5] = biological target: Claspin 897-1209aa polypeptide (#13), C-terminally Flag-tagged (UniProt Q9HAW4); test: co-IP
[6] = biological target: Claspin 1-350aa+897-1339aa polypeptide (#24), C-terminally Flag-tagged (UniProt Q9HAW4); test: co-IP; remark: listed apart in the source
[7] = biological target: Flag-tagged wild-type Claspin (UniProt Q9HAW4); test: co-IP; remark: listed apart in the source
[8] = biological target: Claspin 897-1101aa polypeptide (#27), C-terminally Flag-tagged (UniProt Q9HAW4); test: co-IP
[9] = biological target: Claspin 1-350aa+897-1209aa polypeptide (#19), C-terminally Flag-tagged (UniProt Q9HAW4); test: co-IP; remark: listed apart in the source
[10] = biological target: Claspin 897-1339aa polypeptide (#18), C-terminally Flag-tagged (UniProt Q9HAW4); test: co-IP; remark: listed apart in the source
[11] = biological target: Claspin 897-1209aa polypeptide (#13), C-terminally Flag-tagged (UniProt Q9HAW4); test: co-IP; remark: listed apart in the source
[12] = biological target: Flag-tagged wild-type Claspin (UniProt Q9HAW4); test: pull-down
[13] = biological target: His-tagged 897-1209aa Claspin polypeptide, wild type (UniProt Q9HAW4); test: pull-down
[14] = biological target: Claspin 897-1209aa polypeptide (#13), C-terminally Flag-tagged (UniProt Q9HAW4); test: pull-down

Molecule: S6 kinase (endogenous, 293T) (from UniProt P23443 1-525)
- binding [1]: no binding

Molecule: 4EBP1 (endogenous, 293T) (from UniProt Q13541 1-118)
- binding [1]: no binding

B2: purified PDK1 (Carna Bioscience) (enzyme, UniProt O15530 1-556)
chain: MARTTSQLYDAVPIQSSVVLCSCPSPSMVRTQTESSTPPGIPGGSRQGPAMDGTAAEPRPGAGSLQHAQPPPQPRKKRPEDFKFGKILGEGSFSTVVLARELATSREYAIKILEKRHIIKENKVPYVTRERDVMSRLDHPFFVKLYFTFQDDEKLYFGLSYAKNGELLKYIRKIGSFDETCTRFYTAEIVSALEYLHGKGIIHRDLKPENILLNEDMHIQITDFGTAKVLSPESKQARANSFVGTAQYVSPELLTEKSACKSSDLWALGCIIYQLVAGLPPFRAGNEYLIFQKIIKLEYDFPEKFFPKARDLVEKLLVLDATKRLGCEEMEGYGPLKAHPFFESVTWENLHQQTPPKLTAYLPAMSEDDEDCYGNYDNLLSQFGCMQVSSSSSSHSLSASDTGLPQRSGSNIEQYIHDLDSNSFELDLQFSEDEKRLLLEKQAGGNPWHQFVENNLILKMGPVDKRKGLFARRRQLLLTEGPHLYYVDPVNKVLKGEIPWSQELRPEAKNFKTFFVHTPNRTYYLMDPSGNAHKWCRKIQEVWRQRYQSHPDAAVQ
- binding [12]: binds
- binding [13]: binds
- binding [14]: binds

Now from value to molecule:

- binding [2]: binds
- binding [1]: binds
- binding [3]: binds
- binding [4]: binds
- binding [5]: binds
Molecule: PI3 kinase p110β (endogenous, 293T) (from UniProt P42338 1-1070)

- binding [6]: binds
- binding [7]: binds
- binding [8]: binds
- binding [9]: binds
- binding [10]: binds
- binding [11]: binds
B1: PDK1 (endogenous, 293T) (protein, UniProt O15530 1-556)
chain: MARTTSQLYDAVPIQSSVVLCSCPSPSMVRTQTESSTPPGIPGGSRQGPAMDGTAAEPRPGAGSLQHAQPPPQPRKKRPEDFKFGKILGEGSFSTVVLARELATSREYAIKILEKRHIIKENKVPYVTRERDVMSRLDHPFFVKLYFTFQDDEKLYFGLSYAKNGELLKYIRKIGSFDETCTRFYTAEIVSALEYLHGKGIIHRDLKPENILLNEDMHIQITDFGTAKVLSPESKQARANSFVGTAQYVSPELLTEKSACKSSDLWALGCIIYQLVAGLPPFRAGNEYLIFQKIIKLEYDFPEKFFPKARDLVEKLLVLDATKRLGCEEMEGYGPLKAHPFFESVTWENLHQQTPPKLTAYLPAMSEDDEDCYGNYDNLLSQFGCMQVSSSSSSHSLSASDTGLPQRSGSNIEQYIHDLDSNSFELDLQFSEDEKRLLLEKQAGGNPWHQFVENNLILKMGPVDKRKGLFARRRQLLLTEGPHLYYVDPVNKVLKGEIPWSQELRPEAKNFKTFFVHTPNRTYYLMDPSGNAHKWCRKIQEVWRQRYQSHPDAAVQ
modifications: phosphoserine at 241 (the form told to interact with Claspin in Fig. 5A)
